# Measured values published in the supplement of paper PMC11732987, “Enantioselective OTUD7B fragment discovery through chemoproteomics screening and high-throughput optimisation” (Communications Chemistry, 2025).
# By UniProt entry, the sequences of proteins in these tests, tags left out. Where a name states a change or a piece, a line headed by the entry shows the natural chain unless it says otherwise. Residues count along the entry.
# UniProt Q96K76: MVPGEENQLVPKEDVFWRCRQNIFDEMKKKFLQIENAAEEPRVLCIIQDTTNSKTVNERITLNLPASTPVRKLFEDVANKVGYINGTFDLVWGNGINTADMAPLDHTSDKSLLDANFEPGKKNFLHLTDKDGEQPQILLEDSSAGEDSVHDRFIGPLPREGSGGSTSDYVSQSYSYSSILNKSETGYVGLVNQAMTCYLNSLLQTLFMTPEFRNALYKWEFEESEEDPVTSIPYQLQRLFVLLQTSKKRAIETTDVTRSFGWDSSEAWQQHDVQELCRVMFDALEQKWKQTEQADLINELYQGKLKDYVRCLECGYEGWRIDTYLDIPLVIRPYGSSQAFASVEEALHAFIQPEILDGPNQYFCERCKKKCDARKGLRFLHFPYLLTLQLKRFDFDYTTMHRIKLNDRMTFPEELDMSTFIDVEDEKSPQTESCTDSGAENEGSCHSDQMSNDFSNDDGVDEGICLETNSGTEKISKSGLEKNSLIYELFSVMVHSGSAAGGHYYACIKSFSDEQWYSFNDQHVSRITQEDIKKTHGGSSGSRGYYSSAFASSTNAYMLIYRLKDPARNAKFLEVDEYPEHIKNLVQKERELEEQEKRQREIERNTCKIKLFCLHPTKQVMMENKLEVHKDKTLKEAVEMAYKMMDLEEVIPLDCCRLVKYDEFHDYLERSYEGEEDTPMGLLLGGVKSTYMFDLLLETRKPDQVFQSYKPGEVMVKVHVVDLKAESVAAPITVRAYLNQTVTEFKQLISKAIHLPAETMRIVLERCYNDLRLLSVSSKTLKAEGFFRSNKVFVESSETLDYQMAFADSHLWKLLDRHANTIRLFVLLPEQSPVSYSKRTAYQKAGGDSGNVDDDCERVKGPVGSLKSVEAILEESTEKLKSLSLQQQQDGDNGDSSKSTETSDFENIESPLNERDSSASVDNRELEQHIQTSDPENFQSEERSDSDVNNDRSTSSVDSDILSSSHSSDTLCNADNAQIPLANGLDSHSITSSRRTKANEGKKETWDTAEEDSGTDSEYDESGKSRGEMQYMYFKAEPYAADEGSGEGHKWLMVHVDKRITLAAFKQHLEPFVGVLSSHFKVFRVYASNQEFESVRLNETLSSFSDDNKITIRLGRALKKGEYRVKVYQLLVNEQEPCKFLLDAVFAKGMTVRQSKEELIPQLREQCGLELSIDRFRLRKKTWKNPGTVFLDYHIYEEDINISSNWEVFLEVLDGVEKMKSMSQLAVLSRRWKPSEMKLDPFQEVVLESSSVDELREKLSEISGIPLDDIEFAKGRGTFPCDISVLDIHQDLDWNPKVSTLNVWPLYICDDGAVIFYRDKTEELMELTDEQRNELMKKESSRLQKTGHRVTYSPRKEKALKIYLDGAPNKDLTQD
# UniProt Q96PU4: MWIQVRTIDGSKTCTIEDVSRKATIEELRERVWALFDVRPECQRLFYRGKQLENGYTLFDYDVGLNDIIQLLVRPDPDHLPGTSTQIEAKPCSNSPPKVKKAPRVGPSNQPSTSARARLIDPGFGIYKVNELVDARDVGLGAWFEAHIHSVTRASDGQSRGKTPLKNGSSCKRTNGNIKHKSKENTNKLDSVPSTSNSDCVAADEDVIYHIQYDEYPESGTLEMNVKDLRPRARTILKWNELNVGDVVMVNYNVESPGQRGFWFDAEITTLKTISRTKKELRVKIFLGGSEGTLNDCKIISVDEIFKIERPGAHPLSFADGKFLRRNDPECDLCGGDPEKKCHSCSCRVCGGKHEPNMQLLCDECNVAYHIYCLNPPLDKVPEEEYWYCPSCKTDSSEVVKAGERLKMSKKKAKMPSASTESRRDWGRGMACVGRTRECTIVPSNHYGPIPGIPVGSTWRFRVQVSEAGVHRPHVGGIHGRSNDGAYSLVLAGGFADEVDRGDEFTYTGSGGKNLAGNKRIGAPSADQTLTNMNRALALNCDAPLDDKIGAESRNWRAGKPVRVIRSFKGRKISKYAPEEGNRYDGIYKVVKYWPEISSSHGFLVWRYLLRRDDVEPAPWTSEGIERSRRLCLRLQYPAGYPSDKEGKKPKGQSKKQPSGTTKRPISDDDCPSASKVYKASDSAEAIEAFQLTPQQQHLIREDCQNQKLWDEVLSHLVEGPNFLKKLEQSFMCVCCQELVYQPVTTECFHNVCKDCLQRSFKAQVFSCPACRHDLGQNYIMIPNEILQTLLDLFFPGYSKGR
# UniProt O94763, 414-435: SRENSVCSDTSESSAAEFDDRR
# UniProt Q96T88: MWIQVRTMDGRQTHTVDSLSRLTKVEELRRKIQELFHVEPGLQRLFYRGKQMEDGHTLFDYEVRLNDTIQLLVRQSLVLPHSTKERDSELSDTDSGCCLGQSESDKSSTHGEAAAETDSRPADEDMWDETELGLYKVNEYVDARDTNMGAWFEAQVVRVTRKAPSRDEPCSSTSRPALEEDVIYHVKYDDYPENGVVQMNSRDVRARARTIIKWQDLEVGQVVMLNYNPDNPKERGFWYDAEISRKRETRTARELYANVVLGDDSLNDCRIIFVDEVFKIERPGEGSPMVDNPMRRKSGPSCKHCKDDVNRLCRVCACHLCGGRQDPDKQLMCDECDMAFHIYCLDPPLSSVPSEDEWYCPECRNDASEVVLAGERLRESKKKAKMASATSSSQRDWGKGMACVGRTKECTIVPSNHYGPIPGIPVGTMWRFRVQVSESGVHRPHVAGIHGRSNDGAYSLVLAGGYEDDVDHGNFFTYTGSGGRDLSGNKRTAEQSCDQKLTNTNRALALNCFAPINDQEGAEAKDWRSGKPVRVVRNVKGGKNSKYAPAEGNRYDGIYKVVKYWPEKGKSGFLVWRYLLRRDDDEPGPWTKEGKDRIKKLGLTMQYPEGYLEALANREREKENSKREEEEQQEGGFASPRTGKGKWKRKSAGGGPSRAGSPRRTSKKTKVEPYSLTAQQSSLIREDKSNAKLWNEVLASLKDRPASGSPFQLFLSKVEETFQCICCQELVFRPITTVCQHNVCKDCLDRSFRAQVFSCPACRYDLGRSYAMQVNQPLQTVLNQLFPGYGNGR
# UniProt Q08AM6: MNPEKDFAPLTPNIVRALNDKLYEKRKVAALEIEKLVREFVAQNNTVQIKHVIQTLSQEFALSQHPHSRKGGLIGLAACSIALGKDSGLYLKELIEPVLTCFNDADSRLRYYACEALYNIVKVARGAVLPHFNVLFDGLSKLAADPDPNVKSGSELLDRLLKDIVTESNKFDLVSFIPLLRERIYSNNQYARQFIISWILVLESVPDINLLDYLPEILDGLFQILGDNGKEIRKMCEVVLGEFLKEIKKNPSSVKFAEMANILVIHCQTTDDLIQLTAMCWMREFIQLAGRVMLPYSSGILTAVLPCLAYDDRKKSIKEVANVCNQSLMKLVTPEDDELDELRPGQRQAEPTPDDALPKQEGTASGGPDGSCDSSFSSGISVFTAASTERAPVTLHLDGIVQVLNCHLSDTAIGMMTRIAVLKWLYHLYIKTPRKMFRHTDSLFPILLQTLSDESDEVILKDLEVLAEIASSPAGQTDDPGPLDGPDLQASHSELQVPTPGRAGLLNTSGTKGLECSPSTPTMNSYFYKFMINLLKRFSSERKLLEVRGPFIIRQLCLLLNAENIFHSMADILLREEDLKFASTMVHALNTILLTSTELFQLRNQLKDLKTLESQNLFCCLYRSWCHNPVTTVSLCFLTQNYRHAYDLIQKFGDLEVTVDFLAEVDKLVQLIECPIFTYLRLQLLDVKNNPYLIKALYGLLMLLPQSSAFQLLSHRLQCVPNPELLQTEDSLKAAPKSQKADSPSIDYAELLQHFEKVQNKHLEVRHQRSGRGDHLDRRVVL
# UniProt Q9NZ43: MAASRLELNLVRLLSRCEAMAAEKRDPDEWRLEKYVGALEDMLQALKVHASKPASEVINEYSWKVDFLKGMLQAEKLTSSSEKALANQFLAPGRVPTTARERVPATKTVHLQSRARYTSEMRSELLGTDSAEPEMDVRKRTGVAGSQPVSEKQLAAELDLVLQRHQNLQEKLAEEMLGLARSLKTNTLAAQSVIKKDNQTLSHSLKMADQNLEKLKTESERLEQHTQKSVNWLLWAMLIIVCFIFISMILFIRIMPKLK
# UniProt O94874, 123-144: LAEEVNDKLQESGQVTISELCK
# UniProt Q9P0L0: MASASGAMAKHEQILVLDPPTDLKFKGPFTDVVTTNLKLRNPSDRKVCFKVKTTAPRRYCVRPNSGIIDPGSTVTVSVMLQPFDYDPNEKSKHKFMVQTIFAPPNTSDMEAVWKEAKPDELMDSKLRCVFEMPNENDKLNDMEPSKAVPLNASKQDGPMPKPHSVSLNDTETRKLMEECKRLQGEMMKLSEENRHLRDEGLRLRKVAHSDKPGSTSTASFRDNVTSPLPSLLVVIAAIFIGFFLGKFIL
# UniProt Q9P253: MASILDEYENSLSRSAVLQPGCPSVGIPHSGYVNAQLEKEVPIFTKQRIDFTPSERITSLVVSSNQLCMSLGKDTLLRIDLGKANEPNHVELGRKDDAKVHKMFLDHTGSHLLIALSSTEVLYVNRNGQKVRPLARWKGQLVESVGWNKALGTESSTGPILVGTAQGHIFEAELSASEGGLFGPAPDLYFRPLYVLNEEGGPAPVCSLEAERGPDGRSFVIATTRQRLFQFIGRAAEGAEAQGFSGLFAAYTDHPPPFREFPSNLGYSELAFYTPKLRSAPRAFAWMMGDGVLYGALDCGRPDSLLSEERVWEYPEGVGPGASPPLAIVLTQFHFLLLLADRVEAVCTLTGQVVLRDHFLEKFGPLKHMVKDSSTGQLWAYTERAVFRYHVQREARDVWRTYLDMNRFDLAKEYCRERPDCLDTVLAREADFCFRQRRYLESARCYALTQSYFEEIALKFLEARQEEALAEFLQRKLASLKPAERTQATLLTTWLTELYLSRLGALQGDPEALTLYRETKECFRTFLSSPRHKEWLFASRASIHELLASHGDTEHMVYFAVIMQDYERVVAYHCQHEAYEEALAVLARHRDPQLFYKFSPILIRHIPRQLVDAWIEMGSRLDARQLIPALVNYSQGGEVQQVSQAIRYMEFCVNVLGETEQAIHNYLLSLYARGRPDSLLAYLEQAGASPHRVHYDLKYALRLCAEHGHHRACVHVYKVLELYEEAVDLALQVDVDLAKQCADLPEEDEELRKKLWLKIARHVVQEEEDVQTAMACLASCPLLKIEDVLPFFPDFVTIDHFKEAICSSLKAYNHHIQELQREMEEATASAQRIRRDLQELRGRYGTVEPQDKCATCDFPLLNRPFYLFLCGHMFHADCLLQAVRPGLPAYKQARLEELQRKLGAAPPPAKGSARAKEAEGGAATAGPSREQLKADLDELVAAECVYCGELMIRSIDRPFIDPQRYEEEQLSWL
# UniProt Q8NB14: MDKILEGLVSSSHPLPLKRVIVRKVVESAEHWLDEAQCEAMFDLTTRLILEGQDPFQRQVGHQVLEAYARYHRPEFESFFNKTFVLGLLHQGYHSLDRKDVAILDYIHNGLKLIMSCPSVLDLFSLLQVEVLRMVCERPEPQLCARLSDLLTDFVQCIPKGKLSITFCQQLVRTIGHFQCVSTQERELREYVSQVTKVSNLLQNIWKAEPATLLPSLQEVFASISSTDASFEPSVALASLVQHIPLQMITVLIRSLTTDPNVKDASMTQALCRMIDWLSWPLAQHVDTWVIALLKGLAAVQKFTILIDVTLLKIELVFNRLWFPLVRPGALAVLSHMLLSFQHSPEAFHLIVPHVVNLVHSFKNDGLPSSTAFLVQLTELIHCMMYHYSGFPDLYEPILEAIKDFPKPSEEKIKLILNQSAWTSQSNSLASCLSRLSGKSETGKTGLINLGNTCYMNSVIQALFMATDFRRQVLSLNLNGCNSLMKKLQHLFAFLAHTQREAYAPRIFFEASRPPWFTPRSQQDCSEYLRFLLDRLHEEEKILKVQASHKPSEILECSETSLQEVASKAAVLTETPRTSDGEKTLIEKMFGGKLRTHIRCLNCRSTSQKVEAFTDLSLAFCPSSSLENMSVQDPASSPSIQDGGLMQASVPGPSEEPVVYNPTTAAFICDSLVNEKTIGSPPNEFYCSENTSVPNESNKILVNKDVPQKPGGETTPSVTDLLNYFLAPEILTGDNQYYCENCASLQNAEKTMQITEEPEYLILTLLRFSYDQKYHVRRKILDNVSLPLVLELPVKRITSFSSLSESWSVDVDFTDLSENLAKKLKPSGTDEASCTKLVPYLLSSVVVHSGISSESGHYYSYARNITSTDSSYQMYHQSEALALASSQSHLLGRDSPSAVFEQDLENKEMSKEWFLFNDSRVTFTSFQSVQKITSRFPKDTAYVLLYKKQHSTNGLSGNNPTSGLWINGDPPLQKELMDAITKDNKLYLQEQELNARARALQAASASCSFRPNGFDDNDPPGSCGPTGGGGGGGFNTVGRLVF
# This is one part of the list. The data scatter; read single values as rough.
# What was measured:
# [1] = compound: ClCC(=O)N[C@@H]1CCCc2ccccc12; assay: log2 mean competition ratio of IA-DTB cysteine labelling (DMSO/compound) (log2 ratio); higher = stronger cysteine engagement by compound; conditions: treatment time: 4 h, cell line lysate: HEK293T
# Protocol: (§1)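 IA-DTB competitive cysteine chemoproteomics in HEK293T RIPA lysate. Lysates were treated with compound 29 or 30 at 50 or 200 µM for 4 h, then IA-DTB (500 µM, 1 h), trypsin-digested, NeutrAvidin-enriched and analysed by diaPASEF. Competition ratio = intensity DMSO / intensity compound (n=4 treated, n=64 DMSO); binding: mean log2 CR ≥ 1 and p ≤ 0.05 plus QC filters. Target is the cysteine site.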
# [2] = compound: ClCC(=O)N[C@H]1CCCc2ccccc12; assay: as above; conditions: treatment time: 4 h, cell line lysate: HEK293T
# Protocol: as §1
Target,log2 mean competition ratio ([1]; 50 µM),log2 mean competition ratio ([1]; 200 µM),log2 mean competition ratio ([2]; 50 µM),log2 mean competition ratio ([2]; 200 µM)
USP47 C1138 (UniProt Q96K76),0.0813,0.106,-0.0175,0.107
UHRF2 C42 (UniProt Q96PU4),0.0774,0.379,-0.00706,0.307
URI1 C420 (UniProt O94763),0.0829,0.235,-0.14,-0.115
UHRF1 C305 (UniProt Q96T88),-0.17,0.0876,-0.167,0.043
VAC14 C719 (UniProt Q08AM6),-0.097,-0.0894,0.106,0.0572
VPS13D C374 (UniProt Q5THJ4),-0.229,0.235,-0.0554,0.336
VPS13C C2440 (UniProt Q709C8),0.142,-0.0686,0.195,-0.231
USE1 C17 (UniProt Q9NZ43),-0.058,-0.189,0.132,-0.264
UNK C696 (UniProt Q9C0B0),-0.161,0.124,0.325,-0.0595
UFL1 C143 (UniProt O94874),-0.312,0.285,0.203,-0.23
VAPA C179 (UniProt Q9P0L0),-0.0426,0.0809,-0.0281,0.114
VARS1 C381,-0.00975,0.0727,0.037,-0.267
VARS1 C41,0.00665,-0.12,0.017,-0.0214
VPS18 C421 (UniProt Q9P253),0.485,0.176,0.242,0.18
USP28 C701 (UniProt Q96RU2),-0.386,0.48,-0.0762,0.284
USP38 C834 (UniProt Q8NB14),-0.188,0.24,-0.283,0.0214

# Rewritten with bars between the fields: part of the list above.
Target | log2 mean competition ratio ([1]; 50 µM) | log2 mean competition ratio ([1]; 200 µM) | log2 mean competition ratio ([2]; 50 µM) | log2 mean competition ratio ([2]; 200 µM)
VPS13C C2440 (UniProt Q709C8) | 0.142 | -0.0686 | 0.195 | -0.231
USE1 C17 (UniProt Q9NZ43) | -0.058 | -0.189 | 0.132 | -0.264
